# Data taken from patent US5981499A, “Lesion-directed antibiotics in dry dosage forms for the treatment of shallow ulcers of the oral mucosa” (Atlantic Biomed Corporation, priority 1998, dated 1999).
# Where a name gives a salt, the structure may show the parent alone. The name of at least one read-out is uncertain.
# Assay: Local peak and one-hour trough antibiotic concentration in loculated saliva at the site of the troche (microbiological dilution assay)
# Assay type: in vivo, human
# Conditions: 50 mg troche, two subjects
compound,measurement,value
"CN(C)[C@@H]1C(=O)C(C(N)=O)=C(O)[C@@]2(O)C(=O)C3=C(O)c4c(O)cccc4[C@@](C)(O)[C@H]3[C@H](O)[C@@H]12 [oxytetracycline hydrochloride, Oxytetracycline hydrochloride]",initial peak concentration of oxytetracycline hydrochloride in saliva,800 mg/mL
